Binding data for one substance are collected here from publication PMC6115833.

Amino acid sequences for entries named in this document (tags omitted).
UniProt Q8C6B2: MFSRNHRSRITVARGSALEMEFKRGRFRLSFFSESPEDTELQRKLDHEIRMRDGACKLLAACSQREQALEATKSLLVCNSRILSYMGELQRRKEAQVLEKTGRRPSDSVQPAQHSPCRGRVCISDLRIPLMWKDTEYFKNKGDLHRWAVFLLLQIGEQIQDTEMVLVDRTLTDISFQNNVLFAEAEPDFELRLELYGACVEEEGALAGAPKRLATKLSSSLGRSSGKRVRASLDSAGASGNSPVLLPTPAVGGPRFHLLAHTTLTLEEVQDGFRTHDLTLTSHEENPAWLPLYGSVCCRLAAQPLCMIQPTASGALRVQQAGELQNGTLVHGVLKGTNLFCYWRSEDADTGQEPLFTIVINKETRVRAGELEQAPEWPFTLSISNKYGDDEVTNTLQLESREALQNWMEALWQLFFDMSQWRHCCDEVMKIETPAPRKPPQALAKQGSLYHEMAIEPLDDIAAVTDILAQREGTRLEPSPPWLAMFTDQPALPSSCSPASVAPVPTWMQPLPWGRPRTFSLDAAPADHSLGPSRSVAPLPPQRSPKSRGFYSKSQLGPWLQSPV
UniProt Q62159: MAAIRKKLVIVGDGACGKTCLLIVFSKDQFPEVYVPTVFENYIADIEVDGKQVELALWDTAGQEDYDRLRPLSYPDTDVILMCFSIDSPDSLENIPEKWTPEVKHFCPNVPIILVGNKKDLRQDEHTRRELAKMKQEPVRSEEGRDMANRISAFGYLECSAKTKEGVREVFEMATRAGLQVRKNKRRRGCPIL

The target of experiment [1] is rhotekin (UniProt Q8C6B2). Put plainly: condition: only cells untreated (con) or treated with inactive PMT C1165S (1 nM) instead of PMT; pull-down; as a1, but lysate of MLO-Y4 cells left untreated (con) or treated with the inactive mutant PMT C1165S (1 nM, 4 h); only the target purified.
In experiment [2] the target is rhotekin (UniProt Q8C6B2). Put plainly: pull-down; rhotekin beads incubated with lysate of MLO-Y4 cells (serum starved overnight, PMT 1 nM for 4 h); GST-fish buffer (10% glycerol, 50 mM Tris-HCl pH 7.4, 100 mM NaCl, 2 mM MgCl2, 1% NP-40), 1 h at 4 °C; bound RhoC detected by immunoblot; only the target purified. A general note: A western blot detects proteins with antibodies after separation by electrophoresis.

No constants are given. Whether binding was seen depends on the method and setting. Binding seen in cells or lysates may run through a third protein. Some binding calls cover weakened binding; strength is not graded here.

On to RhoC (from UniProt Q62159 1-193), for which the figures for the binding result with rhotekin [1] and with rhotekin [2] were “no binding” and “binds”, respectively.
